# Data taken from patent US11160766B2, “Peritoneal therapeutic fluid” (OPTERION Health AG, priority 2015, dated 2021).
# At least one structure is not confirmed: it was looked up by name or label, or the drawing left a doubt.
# Test system: Human peritoneal mesothelial cells (HPMC)
# Test: resazurin cell viability assay on HPMC exposed to PD solutions
# Type: cell-based
# Settings: Example 4; PD-Solution #4; 72 hours; 3 replicates per concentration
# Description: Human peritoneal mesothelial cells (HPMC) were purchased from Zen Bio Inc. and cultured in cell culture flasks using suppliers media. Near confluent HPMC were harvested by trypsinization, seeded into collagen-coated 96-well tissue culture plates (Corning) and allowed to adhere overnight. The medium was changed to twice diluted with dialysis solution for 48 up to 72 hours.
# Cell viability was established applying the promega resazurin assay, following the suppliers protocol. Living cells are metabolically active and are able to reduce the non-fluorescent dye resazurin to the strongly-fluorescent dye resorufin. The fluorescence output is proportional to the number of viable cells over a wide concentration range. This also allows the calculation of the proliferation rate for cells capable of consecutive cell division. […] For the dose-response relationship, relative viability was plotted against the test item concentrations.
# All assays were conducted in a duplex format using the same cell culture.
# Addition of selected BCAs of this invention partially reestablished reszurin to reorufin conversion, which is interpreted as a result of a decreased cytotoxicity, due to the application of the tested BCAs. Compounds were added at 9 dilutions (Cmax=500 μM) together with tested PD solutions or Medium control. Incubation was 48 hours. […]
compound,measurement,value
Oc1cc(O)c2cc(O)c(-c3cc(O)c(O)c(O)c3)[o+]c2c1 [Delphinidin],improvement of cell viability of HPMC cells (resazurin to resorufin conversion),No cell viability improvement
